{"source": "PubChem BioAssay (Tox21)", "key": {"[1]": {"assay": "p53 small molecule agonists, cell-based qHTS assay: qHTS cell viability counter screen (AID 1963581); note: nearly all actives have a fitted effect of over 45% in size", "conditions": "p53RE-bla HCT-116 viability, ATP luminescence, 16 h; series mostly up to 66 µM", "how_it_was_run": "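Luminescence from CellTiter-Glo, reflecting ATP content, serves as the cytotoxicity measure; it is taken after the 2 h reporter substrate step in HCT-116 p53RE-bla cells dosed for 16 h at 37 C.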"}, "[2]": {"assay": "cAMP Responsive Elements (CRE) small molecule agonists, cell-based qHTS assay (AID 1963590)", "conditions": "CRE-bla HEK293T, beta-lactamase FRET ratio, 3 h; activation: at 92.4 µM (top of the series) unless noted", "how_it_was_run": "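Compound exposure lasted 3 h at 37 C/5% CO2 in CRE-bla HEK 293T cells grown in assay medium with 10% dialyzed FBS and 25 mM HEPES. Reporter signal came from LiveBLAzer B/G FRET substrate, 2 h, room temperature.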"}, "[3]": {"assay": "cAMP Responsive Elements (CRE) small molecule antagonists, cell-based qHTS assay (AID 1963591; active = well fitted inhibition curve with a large enough effect in the signal ratio in the repeat runs, not every such curve was filed as active; inconclusive = weak or mixed curves, or effect the other way; the % refers to the signal ratio)", "conditions": "CRE-bla HEK293T, beta-lactamase FRET ratio; activity change, negative = inhibition: at 92.4 µM (top of the series) unless noted", "how_it_was_run": "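Stimulation used NKH477 at a final 0.25 uM for 3 h in compound-treated CRE-bla HEK293T cells, seeded 18 h beforehand. Reporter activity was measured with LiveBLAzer B/G FRET substrate after 2 h at room temperature.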"}, "[4]": {"molecular_target": "Beta-2 adrenergic receptor (Homo sapiens) (UniProt P07550)", "assay": "Adrenergic beta2 receptor (ADRB2) small molecule agonists, cell-based qHTS assay (AID 1963593);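 for activation: CHO cells stably overexpressing human ADRB2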", "conditions": "CHO-ADRB2 cells, cAMP HTRF, 30 min; activation: at 92.4 µM (top of the series) unless noted", "how_it_was_run": "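CHO cells stably over-expressing ADRB2 were plated overnight at 37C, then dosed with compounds plus a stimulation mix containing 100uM IBMX and 25uM Ro-20-1724 for 0.5hr at room temperature. cAMP was measured by HTRF competition, 1hr.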"}}, "note": "Inconclusive results, whose numbers are uncertain, are shown with a selection of clear calls. Where the call is inconclusive, the potency comes from a doubtful curve fit. Calls of active or inactive are those of the source. Unless noted, calls come from the whole dose curve. % is set by controls: 0 for no effect and ±100 for the full control effect; potency is the fitted concentration of half-maximal effect."}
{"compound": "Nc1cccc(O)c1", "values": [{"measurement": "Potency", "setting": "[1]", "value": "inactive"}, {"measurement": "Potency", "setting": "[2]", "value": "inactive"}, {"measurement": "Potency", "setting": "[3]", "value": "inactive"}, {"measurement": "Potency", "setting": "[4]", "value": "inactive"}]}
{"compound": "CCN(Cc1c(F)cccc1Cl)c1c([N+](=O)[O-])cc(C(F)(F)F)cc1[N+](=O)[O-]", "values": [{"measurement": "Potency", "setting": "[1]", "value": "active: 25.7 µM"}, {"measurement": "Potency", "setting": "[2]", "value": "inconclusive: 27.3 µM [rising, partial curve]"}, {"measurement": "Potency", "setting": "[4]", "value": "inconclusive: 0.969 µM [inhibitor, single point]"}]}
{"compound": "NS(=O)(=O)c1ccc(Cl)c(S(N)(=O)=O)c1", "values": [{"measurement": "Potency", "setting": "[1]", "value": "inactive"}, {"measurement": "activity change, negative = inhibition", "setting": "[3]", "value": "inconclusive: 6.84% [at 42.4 µM]"}]}
{"compound": "CCCc1cc(=O)[nH]c(=S)[nH]1", "values": [{"measurement": "Potency", "setting": "[1]", "value": "inactive"}, {"measurement": "Potency", "setting": "[2]", "value": "inconclusive: 34.4 µM [rising, partial curve]"}, {"measurement": "Potency", "setting": "[3]", "value": "inactive"}, {"measurement": "Potency", "setting": "[4]", "value": "inconclusive: 70.8 µM [inhibitor, partial curve, poor fit]"}, {"measurement": "activation", "setting": "[4]", "value": "inconclusive: -28.7% [at 42.5 µM]"}]}
{"compound": "CCCSS/C(CCO)=C(\\C)N(C=O)Cc1cnc(C)nc1N", "values": [{"measurement": "Potency", "setting": "[1]", "value": "inconclusive: 15.8 µM [rising, partial curve, poor fit]"}, {"measurement": "Potency", "setting": "[2]", "value": "inactive"}, {"measurement": "Potency", "setting": "[4]", "value": "inactive"}]}
{"compound": "O=C(O)c1nc(Cl)c(Cl)c(Cl)c1Cl", "values": [{"measurement": "Potency", "setting": "[1]", "value": "inactive"}, {"measurement": "Potency", "setting": "[2]", "value": "inconclusive: 24.3 µM [rising, partial curve]"}, {"measurement": "Potency", "setting": "[3]", "value": "inconclusive: 30.6 µM [fluorescent, partial curve]"}, {"measurement": "activation", "setting": "[4]", "value": "inconclusive: -8.64%"}]}
{"compound": "CC(=O)c1ccc2c(c1)Cc1ccccc1-2", "values": [{"measurement": "Potency", "setting": "[1]", "value": "inconclusive: 14.5 µM [rising, partial curve, poor fit]"}, {"measurement": "Potency", "setting": "[2]", "value": "inconclusive: 21.7 µM [rising, partial curve]"}, {"measurement": "Potency", "setting": "[4]", "value": "inconclusive: 19.4 µM [inhibitor, full curve]"}]}
